Reference: publication PMC6541591

Protein sequences, listed by entry. Tags and fused reporters are not part of them.
UniProt Q8N9U0: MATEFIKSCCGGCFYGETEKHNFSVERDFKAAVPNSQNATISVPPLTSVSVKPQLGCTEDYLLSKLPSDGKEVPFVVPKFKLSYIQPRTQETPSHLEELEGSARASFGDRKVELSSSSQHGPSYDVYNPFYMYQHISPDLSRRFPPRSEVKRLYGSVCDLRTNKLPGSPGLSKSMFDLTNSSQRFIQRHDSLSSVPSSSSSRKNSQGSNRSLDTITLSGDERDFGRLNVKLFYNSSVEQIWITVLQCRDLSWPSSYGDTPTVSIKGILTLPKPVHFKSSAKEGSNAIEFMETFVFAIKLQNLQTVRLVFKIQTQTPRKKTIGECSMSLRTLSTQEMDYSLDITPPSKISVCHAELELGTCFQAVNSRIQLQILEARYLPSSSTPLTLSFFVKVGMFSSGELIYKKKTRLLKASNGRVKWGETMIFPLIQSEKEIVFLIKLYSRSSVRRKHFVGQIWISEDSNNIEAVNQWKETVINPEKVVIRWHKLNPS

Target: TC2N (human) (UniProt Q8N9U0)
Assay: affinity purification with mass spectrometry; lysates of TC2N-overexpressing MCF7 and MDA-MB-231 cells immunoprecipitated with Flag antibody, proteomic analysis (iTRAQ, NanoLC)

binding: binds
B1: EBP1 (protein, UniProt Q9UQ80 1-394)
chain: MSGEDEQQEQTIAEDLVVTKYKMGGDIANRVLRSLVEASSSGVSVLSLCEKGDAMIMEETGKIFKKEKEMKKGIAFPTSISVNNCVCHFSPLKSDQDYILKEGDLVKIDLGVHVDGFIANVAHTFVVDVAQGTQVTGRKADVIKAAHLCAEAALRLVKPGNQNTQVTEAWNKVAHSFNCTPIEGMLSHQLKQHVIDGEKTIIQNPTDQQKKDHEKAEFEVHEVYAVDVLVSSGEGKAKDAGQRTTIYKRDPSKQYGLKMKTSRAFFSEVERRFDAMPFTLRAFEDEKKARMGVVECAKHELLQPFNVLYEKEGEFVAQFKFTVLLMPNGPMRITSGPFEPDLYKSEMEVQDAELKALLQSSASRKTQKKKKKKASKTAENATSGETLEENEAGD

Results are given in words; binding and its absence hold for the method and conditions named. In cells and extracts the contact can be indirect. These calls come from enrichment with a bait or labelling near it, and not all partners need be listed.
